Measurements published in patent US20050267221A1, “Use of curcumin and analogues thereof as inhibitors of ACC2” (Research Development Foundation, priority 2004, published 2005).
For at least one compound, name, drawing or mass did not settle the structure.

Sequences of proteins named here, by UniProt entry; tags and fusion partners are left off.
UniProt O00763, whole entry: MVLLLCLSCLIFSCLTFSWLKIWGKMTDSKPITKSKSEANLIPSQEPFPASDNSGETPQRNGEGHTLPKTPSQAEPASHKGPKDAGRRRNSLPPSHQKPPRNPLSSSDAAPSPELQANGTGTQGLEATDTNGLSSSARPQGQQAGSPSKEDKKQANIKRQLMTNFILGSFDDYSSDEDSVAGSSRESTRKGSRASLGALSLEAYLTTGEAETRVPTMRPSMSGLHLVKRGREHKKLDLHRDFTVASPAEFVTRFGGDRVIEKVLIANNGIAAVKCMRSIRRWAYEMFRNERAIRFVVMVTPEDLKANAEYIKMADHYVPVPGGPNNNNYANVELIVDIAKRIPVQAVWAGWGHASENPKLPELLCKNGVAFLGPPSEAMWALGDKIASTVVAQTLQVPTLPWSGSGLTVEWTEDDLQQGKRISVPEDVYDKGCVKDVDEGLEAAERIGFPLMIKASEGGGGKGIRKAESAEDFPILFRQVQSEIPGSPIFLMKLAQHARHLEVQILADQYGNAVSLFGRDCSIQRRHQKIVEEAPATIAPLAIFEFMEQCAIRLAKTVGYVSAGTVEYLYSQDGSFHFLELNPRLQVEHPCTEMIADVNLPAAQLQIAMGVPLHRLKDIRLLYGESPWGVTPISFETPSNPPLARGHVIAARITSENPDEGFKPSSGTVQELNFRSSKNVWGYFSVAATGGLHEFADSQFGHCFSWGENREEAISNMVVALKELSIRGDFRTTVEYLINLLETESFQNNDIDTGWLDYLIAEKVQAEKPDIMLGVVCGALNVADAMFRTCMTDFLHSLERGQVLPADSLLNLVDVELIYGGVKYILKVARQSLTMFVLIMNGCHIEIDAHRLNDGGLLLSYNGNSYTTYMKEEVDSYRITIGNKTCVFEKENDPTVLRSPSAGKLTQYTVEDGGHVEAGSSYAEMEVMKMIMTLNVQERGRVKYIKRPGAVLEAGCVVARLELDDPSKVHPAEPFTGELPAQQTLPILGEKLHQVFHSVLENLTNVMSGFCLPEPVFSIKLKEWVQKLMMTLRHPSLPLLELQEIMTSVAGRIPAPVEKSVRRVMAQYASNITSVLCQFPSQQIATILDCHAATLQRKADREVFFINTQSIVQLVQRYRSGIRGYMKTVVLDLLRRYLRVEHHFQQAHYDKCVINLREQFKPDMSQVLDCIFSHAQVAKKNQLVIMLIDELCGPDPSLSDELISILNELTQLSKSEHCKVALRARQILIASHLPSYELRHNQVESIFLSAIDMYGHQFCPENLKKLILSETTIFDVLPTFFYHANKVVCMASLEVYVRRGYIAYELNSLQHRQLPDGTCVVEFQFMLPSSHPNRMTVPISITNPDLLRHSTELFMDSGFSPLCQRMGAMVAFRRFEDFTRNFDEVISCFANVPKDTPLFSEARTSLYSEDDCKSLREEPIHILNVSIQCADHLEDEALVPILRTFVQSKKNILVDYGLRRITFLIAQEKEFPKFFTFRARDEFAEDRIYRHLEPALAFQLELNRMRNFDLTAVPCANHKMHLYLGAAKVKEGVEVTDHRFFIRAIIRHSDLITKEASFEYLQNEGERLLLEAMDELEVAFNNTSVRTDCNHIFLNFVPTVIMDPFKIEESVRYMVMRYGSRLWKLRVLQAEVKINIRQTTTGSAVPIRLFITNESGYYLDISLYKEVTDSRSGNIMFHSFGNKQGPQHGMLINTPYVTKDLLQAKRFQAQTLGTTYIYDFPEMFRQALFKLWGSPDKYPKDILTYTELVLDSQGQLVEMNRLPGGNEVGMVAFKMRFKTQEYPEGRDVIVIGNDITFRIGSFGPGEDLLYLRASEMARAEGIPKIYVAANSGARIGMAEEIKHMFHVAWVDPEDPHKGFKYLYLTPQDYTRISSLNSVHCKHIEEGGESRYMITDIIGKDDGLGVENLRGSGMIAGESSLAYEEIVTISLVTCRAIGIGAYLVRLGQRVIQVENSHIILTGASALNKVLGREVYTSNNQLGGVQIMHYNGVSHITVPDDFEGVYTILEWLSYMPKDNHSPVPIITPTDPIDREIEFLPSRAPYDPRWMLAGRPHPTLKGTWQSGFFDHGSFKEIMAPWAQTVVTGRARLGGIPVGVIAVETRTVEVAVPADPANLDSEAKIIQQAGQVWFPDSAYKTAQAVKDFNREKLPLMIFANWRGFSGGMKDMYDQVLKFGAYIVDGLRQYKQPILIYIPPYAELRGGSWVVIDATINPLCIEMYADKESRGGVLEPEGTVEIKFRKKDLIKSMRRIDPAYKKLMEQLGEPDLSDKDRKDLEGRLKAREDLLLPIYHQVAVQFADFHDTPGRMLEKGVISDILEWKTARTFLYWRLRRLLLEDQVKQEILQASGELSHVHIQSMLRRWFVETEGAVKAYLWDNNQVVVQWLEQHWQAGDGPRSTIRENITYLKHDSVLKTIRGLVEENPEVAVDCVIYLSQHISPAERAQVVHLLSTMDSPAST

How the values were obtained:
[1] = test system: streptozotocin-induced diabetic rats; conditions: diet containing 0.5% curcumin; cited from earlier work
rats = rats which received curcumin; cited from earlier work
recombinant human ACC2 = recombinant human ACC2 (Homo sapiens, UniProt O00763); assay: Radioactive assay of ACC2 activity ([14C]KHCO3 incorporation into malonyl-CoA); format: biochemical
Method: The reaction mixture contained 50 mM HEPES, pH 7.5, 2.5 mM MnCl2, 2.0 mM DTT, 0.125 mM acetyl-CoA, 4.0 mM ATP, 12.5 mM [^14C]KHCO3 (4×10^6 dpm), 0.75 mg/mL BSA, 10 mM tripotassium citrate and 0.1-0.2 μg ACC enzyme, in a total volume of 150 μL. The reaction was initiated by the addition of ACC2 and the assay was carried out at 37° C. for 2-7 min. The reaction was stopped by the addition of 50 μL of 6 N HCl. Subsequently, 150 μL was transferred into a glass scintillation vial and evaporated to dryness by heating to 85° C. in a heating block for 1 hour. The dried vials were cooled, 0.5 mL of water and 5 mL of ScintiSafe™ 30% were added, and the radioactivity was determined in a Beckman liquid scintillation counter (LS 3801). The tubes, where HCl was added before the addition of acetyl-CoA carboxylase, served as blanks. Avicin G and curcumin inhibitors were made up as stock solutions in water and DMSO, respectively, and added to the assay at the indicated concentrations such that the DMSO concentration was 1% (v/v). […] Enzyme activity was based on radioactivity detected in malonyl-CoA and the dpm's set to 100% activity in the absence of any test compound. […]
A dose-response series was conducted with curcumin (in DMSO) to verify a classical inhibition pattern. In this study, all curcumin concentrations were added in 1% (v/v) DMSO and the enzyme activity measured. […]

COc1cc(/C=C/C(=O)CC(=O)/C=C/c2ccc(O)c(OC)c2)ccc1O [curcumin, 1,7,-bis(4-hydroxy-3-methoxyphenyl)-1,6-heptadiene-3,5-dione]
cholesterol, triglyceride and phospholipid levels in blood [1]: reduced
renal lesions associated with diabetes mellitus [1]: amelioration
activity of acyl-CoA oxidase (rats): enhanced activity
triglyceride accumulation in the liver (rats): inhibition
dose-response inhibition of ACC2 (in words) (recombinant human ACC2; human ACC2, dose-response series, all concentrations in 1% (v/v) DMSO, FIG. 1): classical dose-response relationship
effect on ACC2 activity (in words) (recombinant human ACC2; recombinant human ACC2, radioactive assay, conditions of Table 1): exhibited inhibition
